Literature values as cited in patent US20250017859A1, “SOLID DISPERSION, PREPARATION METHOD, AND PHARMACEUTICAL COMPOSITION THEREOF” (Anxo Pharmaceutical Co., Ltd., priority 2023, published 2025).
At least one compound was matched to its structure with a doubt left.

Conditions: high permeability and low water solubility; cited from earlier work

O=C1[C@@H]2[C@H]3CC[C@H](C3)[C@@H]2C(=O)N1C[C@@H]1CCCC[C@H]1CN1CCN(c2nsc3ccccc23)CC1 [Lurasidone]
biopharmaceutics classification system (BCS) class: class II
